Results as given in PMC11994786.
These are yes or no findings as the source states them, for the method shown. In cells and extracts the contact can be indirect. These calls come from enrichment with a bait or labelling near it, and not all partners need be listed.

The chains behind the UniProt entries cited, without tags or fusion partners.
UniProt P69566: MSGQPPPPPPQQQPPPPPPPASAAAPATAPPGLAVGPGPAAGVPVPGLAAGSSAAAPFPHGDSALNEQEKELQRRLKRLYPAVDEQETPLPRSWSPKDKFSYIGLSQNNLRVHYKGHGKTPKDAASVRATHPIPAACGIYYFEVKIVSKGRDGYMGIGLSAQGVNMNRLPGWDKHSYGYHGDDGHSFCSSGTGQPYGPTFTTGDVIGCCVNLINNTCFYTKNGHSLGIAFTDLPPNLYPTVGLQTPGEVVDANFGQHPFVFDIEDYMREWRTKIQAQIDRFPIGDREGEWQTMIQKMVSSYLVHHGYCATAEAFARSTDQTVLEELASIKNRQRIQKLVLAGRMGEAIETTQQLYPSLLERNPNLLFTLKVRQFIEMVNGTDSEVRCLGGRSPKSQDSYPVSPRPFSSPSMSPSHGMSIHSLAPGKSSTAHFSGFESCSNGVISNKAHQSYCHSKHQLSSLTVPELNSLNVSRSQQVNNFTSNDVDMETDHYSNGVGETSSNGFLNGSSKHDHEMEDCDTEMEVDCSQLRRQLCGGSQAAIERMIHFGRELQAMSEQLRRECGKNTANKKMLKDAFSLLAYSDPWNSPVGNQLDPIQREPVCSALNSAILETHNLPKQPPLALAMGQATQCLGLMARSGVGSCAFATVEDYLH

Biological target: RanBP9-3xHA (Ran Binding Protein 9 fused to three copies of the HA tag) (mouse) (UniProt P69566)
Assay: affinity purification with mass spectrometry; anti-HA magnetic beads on 1 mg pre-cleared whole lung lysate of LysMBP9X mice, overnight at 4 °C, on-bead trypsin digestion, LC-MS/MS; hits significant (p ≤ 0.05) against HA-IP from WT mice and Ig-IPs

binding	Binder
binds	Tho6 (member of the THO complex) (protein, UniProt Q5U4D9 1-341) MEHAAPLAVPLGQAEVFQALQRLHMTIFSQSVSPCGKFLAAGNNYGQIAIFSLSAALSSEAKEESKKPVVVFHAHDGPVYSMVSTDRHLLSAGDGEVKGWLWAEILKKGCKELWRRQPPYRTSLEVPEINALLLVPKENSLILAGGDCQLHSMDLETGAFTRALRGHTDYIHCLALRERSPEVLSGGEDGAVRLWDLRIAKEVQTIEVYKHEECSRPHNGRWIGCLATDSDWMVCGGGPALTLWHLRSSTPTTVFPIRAPQKHVTFYQDLILSAGQGCCVNHWQLSGELKAQVPGSSPGLLSLSLNQQPAAPECKVLTASGNSCRVDVFTNLGYRAFSLSF
binds	Snrp40 (protein, UniProt Q6PE01 1-358) MIEQQKRKGPELPLVPVKRPRHELLLGAAGAGPGAGPQQATPGALLQAGPPRCSSLQAPIMLLSGHEGEVYCCKFHPNGSTLASAGFDRLILLWNVYGDCDNYATLKGHSGAVMELHYNTDGSMLFSASTDKTVAVWDSETGERVKRLKGHTSFVNSCYPARRGPQLVCTGSDDGTVKLWDIRKKAAVQTFQNTYQVLAVTFNDTSDQIISGGIDNDIKVWDLRQNKLTYTMRGHADSVTGLSLSSEGSYLLSNAMDNTVRVWDVRPFAPKERCVKIFQGNVHNFEKNLLRCSWSPDGSKIAAGSADRFVYVWDTTSRRVLYKLPGHAGSINEVAFHPDEPIILSASSDKRLYMGEIQ

Second part, the binder before the results:

Binder	binding
Eloa (Elongin a) (protein, UniProt Q8CB77 1-773) MAAESALQVVEKLQARLAANPDPKKLLKYLKKLSILPITVDILVETGVGKTVNSFRKHEQVGNFARDLVAQWKKLVPVERNSEAEDQDFEKNNSRKRPRDALQREEELEGNYQESWKPSGSRSYSPEHRQKKHKKLSEPERPHKVAHSHEKRDERKRCHKVSPPYSSDPESSDYGHVQSPPPSSPHQMYTDLSRSPEEDQEPIISHQKPGKVHSNTFQDRLGVSHLGEQGKGAVSHHKQHRSSHKEKHPADAREDEKISAVSREKSHKASSKEESRRLLSGDSAKEKLPSSVVKKDKDREGSSLKKKFSPALDVASDNHFKKPKHKDSEKAKSDKNKQSVDGVDSGRGTGDPLPKAKEKVPNHLKAQEGKVRTNADGKSAGPLHPKAEETDVDDEFERPTMSFESYLSYDQPRKKKKKVVKTSSTALGEKGLKKKDSKSTSKNLNSAQKLPKVNENKSEKLQPAGAEPTRPRKVPTDVLPALPDIPLPAIHANYRPLPSLELIPSFQPKRKAFSSPQEEEEAGFTGRRMNSKMQVYSGSKCAYLPKMMTLHQQCIRVLKNNIDSIFEVGGVPYSVLEPVLERCTPDQLYRIEECNHVLIEETDQLWKVHCHRDFKEERPEEYESWREMYLRLQDAREQRLRLLTNNIRSAHANKPKGRQAKMAFVNSVAKPPRDVRRRQEKFGTGGAAVPEKVRIKPAPYTTGSSHVPASNSSSNFHSSPEELAYDGPSTSSAHLAPVASSSVSYDPRKPAVKKIAPMMAKTIKAFKNRFSRR	binds
Cwc22 (CWC22 Spliceosome Associated Protein Homolog) (protein, UniProt Q8C5N3 1-908) MKSSVAHMKSSGHNRRETHSSYRRSSSPEDRYTEQERSPRDRGYSDYSRSDYERSRRGYSYDDSMESRSRDREKRRERERDADHRKRSRKSPSPDRSPARGGGQSSPQEEPTWKKKKDELDPLLTRTGGAYIPPAKLRMMQEQITDKSSLAYQRMSWEALKKSINGLINKVNISNISIIIQELLQENIVRGRGLLSRSVLQAQSASPIFTHVYAALVAIINSKFPQIGELILKRLILNFRKGYRRNDKQLCLTASKFVAHLINQNVAHEVLCLEMLTLLLERPTDDSVEVAIGFLKECGLKLTQVSPRGINAIFERLRNILHESEIDKRVQYMIEVMFAVRKDGFKDHPVILEGLDLVEEDDQFTHMLPLEDDYNPEDVLNVFKMDPNFMENEEKYKAIKKEILDEGDSDSNTDQGAGSSEDEEEEDEEEEGEDEEGGQKVTIHDKTEINLVSFRRTIYLAIQSSLDFEECAHKLLKMEFAESQTKELCNMILDCCAQQRTYEKFFGLLAGRFCMLKKEYMESFESIFKEQYDTIHRLETNKLRNVAKMFAHLLYTDSLPWSVLECIKLSEETTTSSSRIFVKIFFQELCEYMGLPKLNARLKDETLQPFFEGLLPRDNPRNTRFAINFFTSIGLGGLTDELREHLKNTPKVIVAQKPEAEQKKPALTSSSSESSSASDSSDSESDSSESSSESSSDASDSSSSSSTQSSTSGITAHSAKGTRKKRQGKARGEEVDKLARGHQALERRREGGREDQRHQEGRTERARSERRRAQNSRDADWRDPLAKHIDDRSHENSHSRVGNGREQGSHREPEDRHGEPKKRRERRDSFSENEKQRSRNQDSDNVRRKDRSKSRERSRRHSGHKGDDARCQNSAERRWEKPGRRPEQSRESKRSQDRRREKSPTTQK	binds
Mcm3 (Minichromosome maintenance complex component 3) (protein, UniProt P25206 1-812) MAGTVVLDDVELREAQRDYLDFLDDEEDQGIYQNKVRELISDNQYRLIVSVNDLRRKNEKRANRLLNNAFEELVAFQRALKDFVASIDATYAKQYEEFYIGLEGSFGSKHVSPRTLTSCFLSCVVCVEGIVTKCSLVRPKVVRSVHYCPATKKTIERRYSDLTTLVAFPSSSVYPTKDEENNPLETEYGLSVYKDHQTITIQEMPEKAPAGQLPRSVDVILDDDLVDKVKPGDRIQVVGTYRCLPGKKGCYTSGTFRTVLIACNVKQMSKDIQPAFSADDIAKIKKFSKTRSKDVFEQLARSLAPSIHGHDYVKKAILCLLLGGVERELENGSHIRGDINILLIGDPSVAKSQLLRYVLCTAPRAIPTTGRGSSGVGLTAAVTTDQETGERRLEAGAMVLADRGVVCIDEFDKMSDMDRTAIHEVMEQGRVTIAKAGIHARLNARCSVLAAANPVYGRYDQYKTPMENIGLQDSLLSRFDLLFIMLDQMDPEQDREISDHVLRMHQYRAPGEQDGDALPLGSSVDILATDDPDFTQDDQQDTRIYEKHDSLLHGTKKKKEKMVSAAFMKKYIHVAKIIKPTLTQESAAYIAEEYSRLRSQDSMSSDTARTSPVTARTLETLIRLATAHAKARMSKTVDLQDAEEAVELVQYAYFKKVLEKEKKRKKASEDESDLEDEEEKSQEDTEQKRKRRKTHAKDGESYDPYDFSEAETQMPQVHTPKTDDSQEKTDDSQETQDSQKVELSEPRLKAFKAALLEVFQEAHEQSVGMLHLTESINRNREEPFSSEEIQACLSRMQDDNQVMVSEGIVFLI	binds
Plrg1 (Pleiotropic regulator 1) (protein, UniProt Q922V4 1-513) MVEEVQKHSVHTLVFRSLKRTHDMFVADNGKPVPLDEESHKRKMAIKLRNEYGPVLHMPTSKENLKEKGPQNATDSYPHKQYPANQGQDVEYLVTGTHPYPAGPGVALTADTKIQRMPSESAAQSLAVALPSQTRVDANRTGPAGSEYRHPGASDRSQPTAMNSIMETGNTKNSALMAKKAPTMPKPQWHPPWKLYRVISGHLGWVRCIAVEPGNQWFVTGSADRTIKIWDLASGKLKLSLTGHISTVRGVIVSTRSPYLFSCGEDKQVKCWDLEYNKVIRHYHGHLSAVYGLDLHPTLDVLVTCSRDSTARIWDVRTKASVHTLSGHTNAVATVRCQAAEPQIITGSHDTTIRLWDLVAGKTRVTLTNHKKSVRAVVLHPLLYTFASGSPDNIKQWKFPDGGFIQNLSGHNAIINTLAVNADGVLVSGADNGTMHLWDWRTGYNFQRVHAAVQPGSLDSESGIFACAFDRSESRLLTAEADKTIKVYREDETATEETHPVSWKPEIIKRKRF	binds
